# According to the supplement of paper PMC8728848:
# The list shows a part of the results.
# Key:
# Assay in all cases: glycan array binding signal (z-score within array); higher = stronger binding
# Conditions in all cases: glycan notation: IUPAC condensed, linker removed
# [1] = target: Neu5Ac(a2-3)Gal(b1-4)GlcNAc(b1-6)GalNAc
# How it was run: (§1)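 Negative Z-scores can be read as non-binding. The Z-score is calculated within each array and then averaged across arrays of one protein sequence at different concentrations or buffers and across linkers. Arrays, 3228 in all, were curated from the Consortium for Functional Glycomics database and kept only where the protein sequence was available.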
# [2] = target: Neu5Ac(a2-3)Gal(b1-4)GlcNAc(b1-6)[Gal(b1-3)]GalNAc
# How it was run: as §1
# [3] = target: Neu5Ac(a2-3)Gal(b1-4)GlcNAc(b1-6)[Neu5Ac(a2-3)Gal(b1-3)]GalNAc
# How it was run: as §1
# [4] = target: Neu5Ac(a2-3)Gal(b1-4)GlcNAc6S
# How it was run: as §1
# [5] = target: Neu5Ac(a2-3)Gal(b1-4)[Fuc(a1-3)]GlcNAc
# How it was run: as §1
# [6] = target: Neu5Ac(a2-3)Gal(b1-4)[Fuc(a1-3)]GlcNAc(b1-2)Man
# How it was run: as §1
# [7] = target: Neu5Ac(a2-3)Gal(b1-4)[Fuc(a1-3)]GlcNAc(b1-3)Gal
# How it was run: as §1
# [8] = target: Neu5Ac(a2-3)Gal(b1-4)[Fuc(a1-3)]GlcNAc(b1-3)Gal(b1-4)GlcNAc
# How it was run: as §1
# [9] = target: Neu5Ac(a2-3)Gal(b1-4)[Fuc(a1-3)]GlcNAc(b1-3)Gal(b1-4)[Fuc(a1-3)]GlcNAc(b1-3)Gal(b1-4)[Fuc(a1-3)]GlcNAc
# How it was run: as §1
# [10] = target: Neu5Ac(a2-3)Gal(b1-4)[Fuc(a1-3)]GlcNAc(b1-3)GalNAc
# How it was run: as §1
# [11] = target: Neu5Ac(a2-3)Gal(b1-4)[Fuc(a1-3)]GlcNAc(b1-6)[Gal(b1-3)]GalNAc
# How it was run: as §1
# [12] = target: Neu5Ac(a2-3)Gal(b1-4)[Fuc(a1-3)]GlcNAc(b1-6)[Neu5Ac(a2-3)Gal(b1-3)]GalNAc
# How it was run: as §1
# [13] = target: Neu5Ac(a2-3)Gal(b1-4)[Fuc(a1-3)]GlcNAc6S
# How it was run: as §1
# [14] = target: Neu5Ac(a2-3)Gal6S(b1-4)GlcNAc
# How it was run: as §1
# [15] = target: Neu5Ac(a2-3)Gal6S(b1-4)[Fuc(a1-3)]GlcNAc
# How it was run: as §1
# Neu5Ac(a2-3)GalNAc = target: Neu5Ac(a2-3)GalNAc
# How it was run: as §1
# [16] = target: Neu5Ac(a2-3)GalNAc(b1-4)GlcNAc
# How it was run: as §1
# [17] = target: Neu5Ac(a2-3)[GalNAc(b1-4)]Gal(b1-4)Glc
# How it was run: as §1
# [18] = target: Neu5Ac(a2-3)[GalNAc(b1-4)]Gal(b1-4)GlcNAc
# How it was run: as §1
# [19] = target: Neu5Ac(a2-3)[GalNAc(b1-4)]Gal(b1-4)GlcNAc(b1-3)GalNAc
# How it was run: as §1
# [20] = target: Neu5Ac(a2-3)[Neu5Ac(a2-6)]GalNAc
# How it was run: as §1
# Neu5Ac(a2-6)Gal = target: Neu5Ac(a2-6)Gal
# How it was run: as §1
# [21] = target: Neu5Ac(a2-6)Gal(b1-3)GlcNAc(b1-3)[Gal(b1-4)GlcNAc(b1-6)]Gal(b1-4)Glc
# How it was run: as §1
# Neu5Ac(a2-6)Gal(b1-4)Glc = target: Neu5Ac(a2-6)Gal(b1-4)Glc
# How it was run: as §1
# [22] = target: Neu5Ac(a2-6)Gal(b1-4)GlcNAc
# How it was run: as §1
# [23] = target: Neu5Ac(a2-6)Gal(b1-4)GlcNAc(b1-2)Man
# How it was run: as §1
# [24] = target: Neu5Ac(a2-6)Gal(b1-4)GlcNAc(b1-2)Man(a1-3)Man(b1-4)GlcNAc(b1-4)GlcNAc
# How it was run: as §1
# [25] = target: Neu5Ac(a2-6)Gal(b1-4)GlcNAc(b1-2)Man(a1-3)[Gal(b1-4)GlcNAc(b1-2)Man(a1-6)]Man(b1-4)GlcNAc(b1-4)GlcNAc
# How it was run: as §1
# [26] = target: Neu5Ac(a2-6)Gal(b1-4)GlcNAc(b1-2)Man(a1-3)[GlcNAc(b1-2)Man(a1-6)]Man(b1-4)GlcNAc(b1-4)GlcNAc
# How it was run: as §1
# [27] = target: Neu5Ac(a2-6)Gal(b1-4)GlcNAc(b1-2)Man(a1-3)[GlcNAc(b1-4)][Neu5Ac(a2-6)Gal(b1-4)GlcNAc(b1-2)Man(a1-6)]Man(b1-4)GlcNAc(b1-4)GlcNAc
# How it was run: as §1
# [28] = target: Neu5Ac(a2-6)Gal(b1-4)GlcNAc(b1-2)Man(a1-3)[Man(a1-6)]Man(b1-4)GlcNAc(b1-4)GlcNAc
# How it was run: as §1
binder,measurement,setting,value
PX9961M-bvu-482-23-482 (Bacteroides vulgatus) (protein) WLDLAPSTQVDTETSINVLSDIEFTLNGIYSTMQSSDAYSGRLVYYGDVTGDDMQAVSSTKRTGNYYRFNFTKDNGPSSHWSYLYSIIQNCNLILMNVDKLSIDEDETEYKNDLKGQALAIRGMALFDLTRIFGYPYLKDNGASLGVPIVKELSTIDSKPARNTVAECYTEIISDLKNSTELLSGDFNKGKVNRWAAMTLLSRVYLYKGEYNEALTMAENAIKGAEKEGYALWTNEEYPTAWGNDASASNPGEILFEIVNLTTDSPGKESMGYLNSYNGYDDMCITCSFYQLLKKDPKDVRLKILSFDKKYYAYVNKYQPQQGENITDANIPLIRLSEAYLNAAEAAVQTGDNAKAVKYLNSIVQRANPENSVEGKTLTLENVLDERRKELVAEGHRMYDVIRNGMTVKRIDVKDSDINKTKHNTAYMEYDWNFHKILLPIPKKEMDANPNMKQNPGYVD,glycan array binding signal (z-score),[1],0.396
same,glycan array binding signal (z-score),[2],0.468
same,glycan array binding signal (z-score),[3],-0.693
same,glycan array binding signal (z-score),[4],-0.697
same,glycan array binding signal (z-score),[5],-0.48
same,glycan array binding signal (z-score),[6],-0.837
same,glycan array binding signal (z-score),[7],-0.041
same,glycan array binding signal (z-score),[8],-0.063
same,glycan array binding signal (z-score),[9],0.485
same,glycan array binding signal (z-score),[10],0.703
same,glycan array binding signal (z-score),[11],-0.329
same,glycan array binding signal (z-score),[12],0.32
same,glycan array binding signal (z-score),[13],0.572
same,glycan array binding signal (z-score),[14],0.074
same,glycan array binding signal (z-score),[15],-0.793
same,glycan array binding signal (z-score),Neu5Ac(a2-3)GalNAc,-0.65
same,glycan array binding signal (z-score),[16],0.171
same,glycan array binding signal (z-score),[17],0.405
same,glycan array binding signal (z-score),[18],-0.289
same,glycan array binding signal (z-score),[19],0.696
same,glycan array binding signal (z-score),[20],-0.188
same,glycan array binding signal (z-score),Neu5Ac(a2-6)Gal,0.409
same,glycan array binding signal (z-score),[21],0.884
same,glycan array binding signal (z-score),Neu5Ac(a2-6)Gal(b1-4)Glc,0.133
same,glycan array binding signal (z-score),[22],0.329
same,glycan array binding signal (z-score),[23],-0.674
same,glycan array binding signal (z-score),[24],-0.834
same,glycan array binding signal (z-score),[25],0.004
same,glycan array binding signal (z-score),[26],-0.203
same,glycan array binding signal (z-score),[27],-0.588
same,glycan array binding signal (z-score),[28],-0.014

# A different layout for some results above:
binder	measurement	setting	value
PX9961M-bvu-482-23-482 (Bacteroides vulgatus) (protein) WLDLAPSTQVDTETSINVLSDIEFTLNGIYSTMQSSDAYSGRLVYYGDVTGDDMQAVSSTKRTGNYYRFNFTKDNGPSSHWSYLYSIIQNCNLILMNVDKLSIDEDETEYKNDLKGQALAIRGMALFDLTRIFGYPYLKDNGASLGVPIVKELSTIDSKPARNTVAECYTEIISDLKNSTELLSGDFNKGKVNRWAAMTLLSRVYLYKGEYNEALTMAENAIKGAEKEGYALWTNEEYPTAWGNDASASNPGEILFEIVNLTTDSPGKESMGYLNSYNGYDDMCITCSFYQLLKKDPKDVRLKILSFDKKYYAYVNKYQPQQGENITDANIPLIRLSEAYLNAAEAAVQTGDNAKAVKYLNSIVQRANPENSVEGKTLTLENVLDERRKELVAEGHRMYDVIRNGMTVKRIDVKDSDINKTKHNTAYMEYDWNFHKILLPIPKKEMDANPNMKQNPGYVD	glycan array binding signal (z-score)	[1]	0.396
same	glycan array binding signal (z-score)	[8]	-0.063
